Source: doi:10.1371/journal.pone.0140310, primary screening data, rounded.

Drug key:
GW0742, 2 µM: Cc1cc(SCc2sc(-c3ccc(C(F)(F)F)c(F)c3)nc2C)ccc1OCC(=O)O
SNS-314, 0.0008 µM: O=C(Nc1cccc(Cl)c1)Nc1ncc(CCNc2ncnc3ccsc23)s1
PD173074, 0.1 µM: CCN(CC)CCCCNc1ncc2cc(-c3cc(OC)cc(OC)c3)c(NC(=O)NC(C)(C)C)nc2n1
pioglitazone, 2 µM: CCc1ccc(CCOc2ccc(CC3SC(=O)NC3=O)cc2)nc1 (stereo not given)
ZM336372, 2 µM: Cc1ccc(NC(=O)c2cccc(N(C)C)c2)cc1NC(=O)c1ccc(O)cc1
dasatinib, 0.004 µM: Cc1nc(Nc2ncc(C(=O)Nc3c(C)cccc3Cl)s2)cc(N2CCN(CCO)CC2)n1
bortezomib, 0.001 µM: CC(C)C[C@H](NC(=O)[C@H](Cc1ccccc1)NC(=O)c1cnccn1)B(O)O
KU-55933, 1 µM: O=c1cc(-c2cccc3c2Sc2ccccc2S3)oc(N2CCOCC2)c1
tamatinib, 0.4 µM: COc1cc(Nc2ncc(F)c(Nc3ccc4c(n3)NC(=O)C(C)(C)O4)n2)cc(OC)c1OC

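Human melanoma cells were exposed to two drugs together for 72 h in 1,536-well plates and read by automated microscopy after fixing and staining. Each value is the count of nuclei relative to DMSO-treated wells, in %, so that 100 equals the control. Every drug was used at one fixed concentration, the lower of two screened (a fifth of the higher). The file gives one value for each pair and line, without errors, so small differences may be noise.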 An unselected part of the screen is shown. An entry leaves out what has no value listed here.

{"combination": "KU-55933 and ZM336372", "501mel": 98.9, "A2058": 104, "COLO 800": 81.3, "IST-MEL1": 106, "C32": 89.7, "COLO 829": 111}
{"combination": "GW0742 and PD173074", "501mel": 82.7, "A2058": 94.1, "COLO 800": 95.5, "IST-MEL1": 109, "C32": 98.1, "COLO 829": 90.4}
{"combination": "KU-55933 and tamatinib", "501mel": 88.5, "A2058": 90.2, "COLO 800": 76.2, "IST-MEL1": 97.2, "C32": 94.1, "COLO 829": 98.8}
{"combination": "bortezomib and tamatinib", "A2058": 83.6, "COLO 800": 115, "IST-MEL1": 84.9, "C32": 82.1, "COLO 829": 79.8}
{"combination": "pioglitazone and SNS-314", "501mel": 85.5, "A2058": 93.8, "COLO 800": 140, "IST-MEL1": 88.4, "C32": 90.1, "COLO 829": 86.3}
{"combination": "PD173074 and pioglitazone", "501mel": 92.5, "A2058": 112, "COLO 800": 111, "IST-MEL1": 113, "C32": 101, "COLO 829": 80.1}
{"combination": "ZM336372 and pioglitazone", "501mel": 83.6, "A2058": 102, "COLO 800": 111, "IST-MEL1": 99.5, "C32": 91.8, "COLO 829": 118}
{"combination": "pioglitazone and dasatinib", "501mel": 88.9, "A2058": 98.4, "COLO 800": 79.0, "IST-MEL1": 90.5, "C32": 93.4, "COLO 829": 73.8}
{"combination": "PD173074 and tamatinib", "501mel": 80.4, "A2058": 81.6, "COLO 800": 73.1, "IST-MEL1": 94.2, "C32": 101, "COLO 829": 84.0}
{"combination": "PD173074 and SNS-314", "501mel": 89.1, "A2058": 96.5, "COLO 800": 74.6, "IST-MEL1": 94.6, "C32": 98.8, "COLO 829": 106}
{"combination": "KU-55933 and bortezomib", "501mel": 26.0, "A2058": 90.3, "COLO 800": 163, "IST-MEL1": 82.0, "C32": 88.5, "COLO 829": 58.9}
{"combination": "dasatinib and KU-55933", "501mel": 86.3, "A2058": 84.2, "COLO 800": 65.4, "IST-MEL1": 88.4, "C32": 74.4, "COLO 829": 78.8}
{"combination": "dasatinib and PD173074", "501mel": 81.0, "A2058": 63.5, "COLO 800": 98.2, "IST-MEL1": 87.0, "C32": 88.3, "COLO 829": 60.2}
{"combination": "GW0742 and ZM336372", "501mel": 74.1, "A2058": 107, "COLO 800": 71.3, "IST-MEL1": 93.5, "C32": 95.0, "COLO 829": 108}
{"combination": "PD173074 and ZM336372", "501mel": 70.6, "A2058": 92.9, "COLO 800": 97.9, "IST-MEL1": 95.6, "C32": 88.1, "COLO 829": 93.5}
{"combination": "bortezomib and ZM336372", "A2058": 76.7, "COLO 800": 87.1, "IST-MEL1": 96.5, "C32": 90.2, "COLO 829": 74.0}
{"combination": "SNS-314 and KU-55933", "501mel": 98.9, "A2058": 93.6, "COLO 800": 67.1, "IST-MEL1": 93.9, "C32": 71.3, "COLO 829": 90.3}
{"combination": "pioglitazone and tamatinib", "501mel": 110, "A2058": 85.8, "COLO 800": 98.5, "IST-MEL1": 90.8, "C32": 96.2, "COLO 829": 84.2}
{"combination": "GW0742 and dasatinib", "501mel": 79.9, "A2058": 77.8, "COLO 800": 106, "IST-MEL1": 87.2, "C32": 78.9, "COLO 829": 81.4}
{"combination": "pioglitazone and KU-55933", "501mel": 113, "A2058": 102, "COLO 800": 108, "IST-MEL1": 99.8, "C32": 99.9, "COLO 829": 101}
{"combination": "GW0742 and tamatinib", "501mel": 89.8, "A2058": 84.0, "COLO 800": 63.6, "IST-MEL1": 105, "C32": 105, "COLO 829": 87.3}

Repeated from the top, 2 entries:

* KU-55933 and ZM336372 : 501mel: 98.9; A2058: 104; COLO 800: 81.3; IST-MEL1: 106; C32: 89.7; COLO 829: 111
* GW0742 and PD173074 : 501mel: 82.7; A2058: 94.1; COLO 800: 95.5; IST-MEL1: 109; C32: 98.1; COLO 829: 90.4